Earlier results as cited in patent US9284366B2, “Anti-acetylated huntingtin antibodies and uses therof” (The General Hospital Corporation, priority 2006, dated 2016).
For at least one compound, name, drawing or mass did not settle the structure.

Test system: Drosophila model of HD
Conditions: pharmacological inhibition of HDAC; cited from earlier work

CCCC(=O)O [butyrate]
lethality and degeneration in Drosophila model of HD: rescue the lethality and degeneration
